{
  "source": "patent US7060677B1",
  "about": "“Antimicrobial activity of the first cationic cluster of human lactoferrin” (priority 1999, dated 2006)",
  "key": {"E. coli": {"test_system": "E. coli", "assay": "Assay for antibacterial activity (in vitro killing, viable count)", "assay_type": "cell-based, Escherichia coli O54", "details": "FIGS. 2A–2D and 3A–3C", "protocol": "(§1) Listeria monocytogenes strain EGD. Klebsiella pneumoniae (43816), and Escherichia coli O54 were purchased from the American Type Culture Collection (Rockville, Md.). Antibiotic resistant S. aureus, K. pneumoniae and E. coli were cultured overnight in nutrient broth (Oxoid, Basingstoke, UK) at 37° C., diluted in tryptase soya broth (TSB, Oxoid) and cultured for an additional 2 h in a shaking waterbath at 37° C. L. monocytogenes was cultured overnight in brain heart infusion broth (BHI, Oxoid) at 37° C. diluted and cultured for an additional 2 h in a shaking waterbath at 37° C.\n(§2) In short, bacteria were washed with phosphate-buffered saline (PBS) (pH 7.4) and diluted to a concentration of approximately 2×10^6 CFU/ml of phosphate-buffered saline (pH 6.0) supplemented with 0.1% (v/v) Tween-20 (hereafter designated as PBS-Tw). […] At various time intervals (range 0–4 h) after incubation at 37° C. the number of viable bacteria was determined microbiologically. As negative controls, bovine serum albumin (BSA; Sigma) or no peptide were included."}, "K. pneumoniae": {"test_system": "K. pneumoniae", "assay": "Assay for antibacterial activity (in vitro killing, viable count)", "assay_type": "cell-based, Klebsiella pneumoniae (43816)", "details": "FIGS. 2A–2D and 3A–3C", "protocol": "as §1, §2"}, "[1]": {"test_system": "the various bacteria (L. monocytogenes, antibiotic resistant S. aureus, K. pneumoniae, E. coli)", "assay": "Assay for antibacterial activity, statements on the various bacteria together", "assay_type": "cell-based", "details": "for Bactericidal activity of synthetic peptides against the various bacteria (in words): FIGS. 2A–2D: 7 μM peptide, 1 h at 37° C., NaPB-TSB", "protocol": "as §1, §2"}, "[2]": {"test_system": "antibiotic resistant S. aureus", "assay": "Assay for antibacterial activity (in vitro killing, viable count)", "assay_type": "cell-based, Staphylococcus aureus strain 2141", "details": "FIGS. 3A–3C, 1 h at 37° C.", "protocol": "as §1, §2"}, "[3]": {"test_system": "antibiotic resistant S. aureus", "assay": "Experimental thigh muscle infection", "assay_type": "in vivo, mice", "details": "FIG. 5; for Number of viable bacteria in mice infected with antibiotic resistant S. aureus: within 24 h after intravenous injection, thigh muscle"}},
  "note": "At least one peptide structure holds a part that was inferred or is arguable (an end, a ring closure or a residue). Some compounds share one wording; it may come from a single statement. Peptide text beside a SMILES is read from it.",
  "data": [
    {"smiles": "CC(C)[C@H](NC(=O)[C@H](CO)NC(=O)[C@H](CCCNC(=N)N)NC(=O)[C@H](CCCNC(=N)N)NC(=O)[C@H](CCCNC(=N)N)NC(=O)[C@@H](N)CCCNC(=N)N)C(=O)N[C@@H](CCC(N)=O)C(=O)N[C@@H](Cc1c[nH]c2ccccc12)C(=O)N[C@@H](CS)C(=O)N[C@@H](C)C(=O)O", "note": "[hLF(2–11)] (H-RRRRSVQWCA-OH; N-terminus and C-terminus assumed)", "values": [
      {"measurement": "Killing of E. Coli by synthetic peptides (in words)", "setting": "E. coli", "result": "killed"},
      {"measurement": "Killing of K pneumoniae by synthetic peptides (in words)", "setting": "K. pneumoniae", "result": "killed"},
      {"measurement": "Bactericidal activity of synthetic peptides against the various bacteria (in words)", "setting": "[1]", "result": "displayed bactericidal activity"},
      {"measurement": "Efficiency in killing antibiotic resistant S. aureus, dose-effect studies, peptide compared with next shorter peptide", "setting": "[2]", "result": "considerably (p<0.05) more efficient than hLF(3–11)"}
    ]},
    {"smiles": "CC(C)[C@H](NC(=O)[C@H](CO)NC(=O)[C@H](CCCNC(=N)N)NC(=O)[C@H](CCCNC(=N)N)NC(=O)[C@@H](N)CCCNC(=N)N)C(=O)N[C@@H](CCC(N)=O)C(=O)N[C@@H](Cc1c[nH]c2ccccc12)C(=O)N[C@@H](CS)C(=O)N[C@@H](C)C(=O)O", "note": "[hLF(3–11)] (H-RRRSVQWCA-OH; N-terminus and C-terminus assumed)", "values": [
      {"measurement": "Killing of E. Coli by synthetic peptides (in words)", "setting": "E. coli", "result": "killed"},
      {"measurement": "Killing of K pneumoniae by synthetic peptides (in words)", "setting": "K. pneumoniae", "result": "killed"},
      {"measurement": "Bactericidal activity of synthetic peptides against the various bacteria (in words)", "setting": "[1]", "result": "displayed bactericidal activity"},
      {"measurement": "Efficiency in killing antibiotic resistant S. aureus, dose-effect studies, peptide compared with next shorter peptide", "setting": "[2]", "result": "significantly (p<0.05) more efficient than hLF(4–11)"}
    ]},
    {"smiles": "CC(C)[C@H](NC(=O)[C@H](CO)NC(=O)[C@H](CCCNC(=N)N)NC(=O)[C@@H](N)CCCNC(=N)N)C(=O)N[C@@H](CCC(N)=O)C(=O)N[C@@H](Cc1c[nH]c2ccccc12)C(=O)N[C@@H](CS)C(=O)N[C@@H](C)C(=O)O", "note": "[hLF(4–11)] (H-RRSVQWCA-OH; N-terminus and C-terminus assumed)", "values": [
      {"measurement": "Bactericidal activity of synthetic peptides against the various bacteria (in words)", "setting": "[1]", "result": "displayed bactericidal activity"},
      {"measurement": "Antibacterial activity of the highest amount in mice infected with antibiotic resistant S. aureus", "setting": "[3]; highest amount", "result": "some antibacterial activity"},
      {"measurement": "Number of viable bacteria in mice infected with antibiotic resistant S. aureus", "setting": "[3]", "result": "reduced in a dose-dependent fashion"}
    ]},
    {"smiles": "CSCC[C@H](NC(=O)[C@H](CC(N)=O)NC(=O)[C@H](CCCNC(=N)N)NC(=O)[C@H](CCC(N)=O)NC(=O)[C@H](Cc1c[nH]c2ccccc12)NC(=O)[C@H](CCC(N)=O)NC(=O)[C@@H](N)Cc1ccccc1)C(=O)N[C@@H](CCCNC(=N)N)C(=O)N[C@@H](CCCCN)C(=O)N[C@H](C(=O)N[C@@H](CCCNC(=N)N)C(=O)O)C(C)C", "note": "[hLF(21–31), reference compound] (H-FQWQRNMRKVR-OH; N-terminus and C-terminus assumed)", "values": [
      {"measurement": "Bactericidal activity in vitro compared with a reference protein/peptide (conclusions)", "setting": "[1]; in vitro studies", "result": "considerably less efficient in killing bacteria than hLF(1–11)"},
      {"measurement": "Number of viable bacteria in mice infected with antibiotic resistant S. aureus", "setting": "[3]", "result": "reduced in a dose-dependent fashion"}
    ]}
  ]
}
